Laboratory results: PubChem BioAssay (Tox21)
Values joined by “and” are separate entries in the source; they are usually repeats but may differ in a detail not shown here. Identical values can stand only once. The source calls these results inconclusive, neither active nor inactive. Unless noted, the call rests on the fitted dose curve; in most records, active means well fitted curve in the direction sought with a large enough effect in the repeat runs; inconclusive means weak or mixed curves; inactive means no such curve, though single readings can be large; an effect the other way counts as inactive or inconclusive.

Sequences of proteins named here, by UniProt entry; tags and fusion partners are left off.
UniProt P35869, whole entry: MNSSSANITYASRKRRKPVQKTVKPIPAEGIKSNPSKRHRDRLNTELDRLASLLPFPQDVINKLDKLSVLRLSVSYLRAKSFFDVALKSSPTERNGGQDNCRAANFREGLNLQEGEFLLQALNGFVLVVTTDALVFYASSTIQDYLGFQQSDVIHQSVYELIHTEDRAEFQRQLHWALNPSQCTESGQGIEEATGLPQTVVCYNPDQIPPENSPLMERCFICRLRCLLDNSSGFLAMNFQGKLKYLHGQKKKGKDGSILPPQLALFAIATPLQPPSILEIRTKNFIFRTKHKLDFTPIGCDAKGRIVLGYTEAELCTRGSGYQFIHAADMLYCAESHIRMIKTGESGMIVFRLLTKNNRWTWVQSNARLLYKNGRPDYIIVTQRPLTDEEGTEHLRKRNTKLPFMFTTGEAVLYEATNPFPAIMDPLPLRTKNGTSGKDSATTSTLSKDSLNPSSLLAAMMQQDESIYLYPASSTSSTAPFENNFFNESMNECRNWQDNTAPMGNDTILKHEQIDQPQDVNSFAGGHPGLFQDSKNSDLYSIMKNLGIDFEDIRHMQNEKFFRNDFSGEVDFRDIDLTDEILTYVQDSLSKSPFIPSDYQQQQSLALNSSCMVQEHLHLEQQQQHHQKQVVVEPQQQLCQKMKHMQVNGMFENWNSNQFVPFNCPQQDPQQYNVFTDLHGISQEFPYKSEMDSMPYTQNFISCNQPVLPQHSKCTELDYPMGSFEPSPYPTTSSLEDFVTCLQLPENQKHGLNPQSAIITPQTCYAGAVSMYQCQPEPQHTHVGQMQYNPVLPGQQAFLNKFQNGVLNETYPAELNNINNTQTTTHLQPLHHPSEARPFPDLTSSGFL
UniProt P19793, whole entry: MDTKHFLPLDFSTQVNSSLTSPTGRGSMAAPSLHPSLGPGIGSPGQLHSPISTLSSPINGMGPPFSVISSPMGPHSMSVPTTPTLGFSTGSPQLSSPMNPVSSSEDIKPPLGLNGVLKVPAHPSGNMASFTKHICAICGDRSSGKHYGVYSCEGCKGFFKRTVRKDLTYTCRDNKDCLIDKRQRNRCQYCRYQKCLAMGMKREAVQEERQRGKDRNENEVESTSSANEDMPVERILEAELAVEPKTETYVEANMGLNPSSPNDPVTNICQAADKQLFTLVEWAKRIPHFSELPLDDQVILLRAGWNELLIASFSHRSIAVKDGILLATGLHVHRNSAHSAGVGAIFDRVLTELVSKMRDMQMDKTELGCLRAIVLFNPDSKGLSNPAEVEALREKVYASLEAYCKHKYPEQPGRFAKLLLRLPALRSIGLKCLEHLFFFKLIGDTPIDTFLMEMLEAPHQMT
UniProt Q14994, whole entry: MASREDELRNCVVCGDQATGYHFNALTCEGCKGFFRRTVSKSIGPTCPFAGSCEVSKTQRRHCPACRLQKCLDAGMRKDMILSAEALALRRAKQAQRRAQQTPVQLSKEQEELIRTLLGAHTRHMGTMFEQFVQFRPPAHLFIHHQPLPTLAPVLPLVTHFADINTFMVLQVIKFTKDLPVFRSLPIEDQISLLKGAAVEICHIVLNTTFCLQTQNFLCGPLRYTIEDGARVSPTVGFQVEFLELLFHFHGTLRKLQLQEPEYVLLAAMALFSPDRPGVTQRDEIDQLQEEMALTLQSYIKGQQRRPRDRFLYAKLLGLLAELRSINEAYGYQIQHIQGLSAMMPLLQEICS
UniProt P16473, whole entry: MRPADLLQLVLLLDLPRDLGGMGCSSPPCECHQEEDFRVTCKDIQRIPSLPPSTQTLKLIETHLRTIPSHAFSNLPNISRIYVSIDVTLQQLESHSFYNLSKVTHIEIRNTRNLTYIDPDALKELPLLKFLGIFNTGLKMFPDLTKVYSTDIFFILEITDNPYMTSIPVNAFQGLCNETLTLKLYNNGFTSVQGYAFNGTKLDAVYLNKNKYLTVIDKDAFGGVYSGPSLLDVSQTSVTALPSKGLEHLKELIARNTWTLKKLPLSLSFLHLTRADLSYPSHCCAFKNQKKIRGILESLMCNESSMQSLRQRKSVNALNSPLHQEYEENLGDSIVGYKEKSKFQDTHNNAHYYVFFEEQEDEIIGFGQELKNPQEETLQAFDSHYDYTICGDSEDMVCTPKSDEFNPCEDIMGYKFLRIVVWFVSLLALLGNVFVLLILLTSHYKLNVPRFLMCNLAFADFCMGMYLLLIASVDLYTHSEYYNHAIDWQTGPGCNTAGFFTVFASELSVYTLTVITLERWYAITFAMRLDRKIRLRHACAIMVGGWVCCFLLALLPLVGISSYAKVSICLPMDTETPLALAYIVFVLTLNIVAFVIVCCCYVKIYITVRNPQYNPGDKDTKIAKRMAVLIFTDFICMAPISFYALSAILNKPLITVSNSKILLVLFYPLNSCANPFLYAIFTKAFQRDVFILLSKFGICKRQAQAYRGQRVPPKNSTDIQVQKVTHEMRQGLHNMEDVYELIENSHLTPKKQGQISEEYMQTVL
UniProt Q92731, whole entry: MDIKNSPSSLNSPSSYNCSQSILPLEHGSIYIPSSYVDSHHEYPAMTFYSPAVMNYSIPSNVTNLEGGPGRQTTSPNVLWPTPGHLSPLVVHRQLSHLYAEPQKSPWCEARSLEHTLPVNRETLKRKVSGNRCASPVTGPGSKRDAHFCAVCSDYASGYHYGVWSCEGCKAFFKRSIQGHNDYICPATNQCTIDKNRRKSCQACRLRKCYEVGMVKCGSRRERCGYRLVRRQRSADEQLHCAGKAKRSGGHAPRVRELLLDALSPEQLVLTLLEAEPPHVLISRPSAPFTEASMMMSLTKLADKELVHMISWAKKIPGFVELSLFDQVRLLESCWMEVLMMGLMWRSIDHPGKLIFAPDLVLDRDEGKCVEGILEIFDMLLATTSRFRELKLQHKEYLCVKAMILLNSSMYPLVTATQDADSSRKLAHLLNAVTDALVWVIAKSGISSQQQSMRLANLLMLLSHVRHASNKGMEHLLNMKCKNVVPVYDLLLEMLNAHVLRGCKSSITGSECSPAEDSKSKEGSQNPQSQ

Legend:
[1] = qHTS assay for small molecule agonists of the p53 signaling pathway (AID 651631; calls by dose curve; further: potency means the concentration at half of the fitted maximal effect; nearly all actives have a fitted effect of over 15% in size); settings: HCT-116 p53RE-bla reporter, beta-lactamase FRET ratio, 16 h; activation: at 73.3 µM (top of the series)
Outline: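 Readout was fluorescence from the LiveBLAzer FRET substrate, applied for 2 h at room temperature after 16 h compound exposure at 37 °C. Cells were the p53RE-bla HCT-116 line, with beta-lactamase driven by p53 response elements.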

[2] = qHTS assay for small molecule disruptors of the mitochondrial membrane potential - cell viability (AID 720634; calls by dose curve; further: potency means the concentration at half of the fitted maximal effect; nearly all actives have a fitted effect of over 20% in size); settings: HepG2 viability, ATP luminescence (CellTiter-Glo), 1 h
Outline: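 HepG2, 1 hr compound, 37 C. ATP luminescence via CellTiter-Glo, 30 min RT, same well as m-MPI.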

[3] = qHTS assay for small molecule disruptors of the mitochondrial membrane potential (AID 720635); settings: HepG2 mitochondrial membrane potential, Mito-MPS dye ratio; ratio activity, negative = MMP loss: at 83.2 µM (top of the series); further: potency means the concentration at half of the fitted maximal effect
Outline: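 HepG2 cells (2,000/well) attached overnight at 37C, then took compound for 1 hr at 37C, 5% CO2. Mito-MPS dye was added for 30 min; fluorescence was read at 490/535 nm (monomers) and 540/590 nm (aggregates).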

[4] = qHTS assay for identifying genotoxic compounds that show differential cytotoxicity against isogenic chicken DT40 cell lines with known DNA damage response pathways - Rev3 mutant cell line (AID 743014); settings: chicken DT40 Rev3-/- viability, CellTiter-Glo, 40 h; further: potency means the concentration at half of the fitted maximal effect; nearly all actives have a fitted effect of over 55% in size
[5] = qHTS assay to identify small molecule antagonists of the thyroid receptor (TR) signaling pathway - cell viability counter screen (AID 743064); settings: GH3.TRE-Luc viability, CellTiter-Fluor, 24 h; activity change, negative = cytotoxic: at 70.3 µM (top of the series); further: nearly all actives have a fitted effect of over 50% in size; further: potency means the concentration at half of the fitted maximal effect; on activity change, negative = cytotoxic: on the % scale 0 is the no-effect control and ±100 the full control effect
Outline: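 In-well cytotoxicity read by CellTiter-Fluor (30 min, 37 C) following 23.5 h exposure of GH3 cells bearing a TRE-luciferase sensor. Compounds were added alongside 1 nM (final) T3 to drive TR transactivation.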

[6] = qHTS assay to identify aromatase inhibitors - cell viability counter screen (AID 743084); settings: MCF-7 aro ERE viability, CellTiter-Fluor, 24 h;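 further: cells stimulated with testosterone during compound exposure; potency means the concentration at half of the fitted maximal effect; nearly all actives have a fitted effect of over 55% in size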
[7] = target: Aryl hydrocarbon receptor (Homo sapiens) (UniProt P35869); assay: qHTS assay to identify small molecule that activate the aryl hydrocarbon receptor (AhR) signaling pathway (AID 743085); settings: HepG2 AhR-luc (HG2L7.5c1), luciferase, 24 h; further: potency means the concentration at half of the fitted maximal effect; nearly all actives have a fitted effect of over 15% in size
[8] = qHTS assay for small molecule activators of the heat shock response signaling pathway (AID 743210; active means well fitted activation curve with a large enough effect in the signal ratio in the repeat runs, with a control signal flat, not every such curve was filed as active; inconclusive means weak or mixed curves; the % refers to the signal ratio; further: potency means the concentration at half of the fitted maximal effect); settings: HeLa HSE-bla reporter, beta-lactamase ratio, 5 h
Outline: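 Reporter gene assay: HeLa cells stably bearing an HSE-bla construct, compound treatment 5 h at 37 C, LiveBLAzer substrate 2.5 h at RT, fluorescence intensity.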

[9] = qHTS assay to identify small molecule antagonists of the vitamin D receptor (VDR) signaling pathway - cell viability counter screen (AID 743225); settings: VDR-bla HEK293T viability, CellTiter-Glo luminescence, 16 h; further: potency means the concentration at half of the fitted maximal effect; nearly all actives have a fitted effect of over 50% in size
Outline: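 Cytotoxicity counter screen read by CellTiter-Glo luminescence (30 min, room temperature) in the same wells as the VDR-bla antagonist readout. HEK 293T VDR-UAS-bla cells had 16 h at 37C with compound and 3 nM (final) 1-alpha,25-dihydroxyvitamin D3, then 2 h with FRET substrate.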

[10] = qHTS assay to identify small molecule agonists of the NFkB signaling pathway (AID 1159509; active means well fitted curve in the direction sought with a large enough effect in the signal ratio in the repeat runs, not every such curve was filed as active; inconclusive means weak or mixed curves, or a change in a side signal; inactive means no such curve, though single readings can be large or run the other way; the % refers to the signal ratio; further: potency means the concentration at half of the fitted maximal effect); settings: NFkB-bla ME-180 cells, beta-lactamase FRET ratio, 5 h
Outline: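 ME-180 NFkB-bla, 2,000 cells/well, overnight plating; cpd pinned in DMSO, 5 h 37 C; B/G FRET substrate 1.5 h RT; ex 405, em 460/530 nm.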

[11] = target: Nuclear receptor ROR-gamma (Homo sapiens) (UniProt P51449); assay: qHTS assay to identify small molecule antagonists of the retinoid-related orphan receptor gamma (ROR-gamma) signaling pathway (AID 1159521; further: potency means the concentration at half of the fitted maximal effect; nearly all actives have a fitted effect of over 50% in size); settings: Tet-on RORgamma CHO cells, RORE-luciferase, 16 h
[12] = target: Retinoic acid receptor RXR-alpha (Homo sapiens) (UniProt P19793); assay: qHTS assay to identify small molecule agonists of the RXR signaling pathway (AID 1159527; calls by dose curve; further: potency means the concentration at half of the fitted maximal effect; nearly all actives have a fitted effect of over 35% in size); settings: HEK293T RXRa-UAS-bla, beta-lactamase ratio, 16 h
Outline: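 Agonist-mode beta-lactamase reporter assay: HEK 293T RXR-alpha-UAS-bla cells treated 16 hr at 37 C with compounds, 9-cis retinoic acid as positive control. LiveBLAzer FRET substrate, 405 nm excitation, 460/530 nm emission.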

[13] = qHTS assay to identify small molecule antagonists of the estrogen related receptor (ERR) signaling pathway from Tox21 library - cell viability counter screen (AID 1224834); settings: ERR reporter cells viability, CellTiter-Fluor, 17.5 h; further: potency means the concentration at half of the fitted maximal effect; nearly all actives have a fitted effect of over 30% in size
Outline: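 After 17.5 h of compound exposure at 37 C, ERR cells are incubated with CellTiter-Fluor for 30 min and fluorescence intensity serves as the viability measure.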

[14] = target: Nuclear receptor subfamily 1 group I member 3 (Homo sapiens) (UniProt Q14994); assay: qHTS assay to identify small molecule agonists of the constitutive androstane receptor (CAR) signaling pathway (AID 1224839); settings: HepG2 hCAR CYP2B6-luciferase, agonist mode, 24 h; further: potency means the concentration at half of the fitted maximal effect; nearly all actives have a fitted effect of over 15% in size
[15] = target: Thyrotropin receptor (Homo sapiens) (UniProt P16473); assay: qHTS assay to identify small molecule agonists of the thyroid stimulating hormone receptor (TSHR) signaling pathway (AID 1224843; calls by dose curve; further: on the % scale 0 is the no-effect control and ±100 the full control effect; nearly all actives have a fitted effect of over 45% in size); settings: TSHR-HEK293 cells, cAMP HTRF, agonist mode, 30 min; at 92.4 µM (top of the series)
[16] = qHTS assay to identify small molecule agonists of the hypoxia (HIF-1) signaling pathway - cell viability counter screen (AID 1224844; calls by dose curve; further: potency means the concentration at half of the fitted maximal effect; nearly all actives have a fitted effect of over 50% in size); settings: HRE-bla ME-180 viability, CellTiter-Glo luminescence, 17 h
Outline: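 Cells (HRE-bla ME-180, 2,000 per well) sat 5 hrs at 37C, got compound for 17 hrs, were read for CCF4-AM FRET, and were finally lysed with CellTiter-Glo for a 30 min room-temperature luminescence read.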

[17] = qHTS assay to identify small molecule agonists of H2AX (AID 1224845; active means well fitted activation curve with a large enough effect in the signal ratio in the repeat runs, not every such curve was filed as active; inconclusive means weak or mixed curves; the % refers to the signal ratio; further: potency means the concentration at half of the fitted maximal effect); settings: CHO-K1 phospho-H2AX Ser139 HTRF, 3 h
Outline: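 Wild-type CHO-K1 cells plated overnight, then exposed 3 hr at 37C to compounds at 15 concentrations (0.76% DMSO). Lysed, then HTRF anti-pH2AX(S139)-cryptate/anti-H2AX-d2 detection after 24 hr at room temperature; emissions 665 and 620 nm.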

[18] = qHTS RealTime-Glo MT Cell Viability Assay in HEK293 cells - 32 hour (AID 1224868); settings: RealTime-Glo luminescence
Outline: (§1)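 Reads taken at 0, 8, 16, 24, 32 and 40 h from the same wells. HEK293 cells (600/well) carried RealTime-Glo reagents from seeding, with compound added after a 5 h settle at 37 C.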

[19] = qHTS RealTime-Glo MT Cell Viability Assay in HEK293 cells - 40 hour (AID 1224874); settings: RealTime-Glo luminescence
Outline: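 Viable HEK293 cells reduce a cell-permeant prosubstrate; the product diffuses out and is consumed by NanoLuc in the medium to give light. Compounds went in after a 5 h incubation and plates were read over the treatment course.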

[20] = qHTS RealTime-Glo MT Cell Viability Assay in HEK293 cells - 24 hour (AID 1224886); settings: RealTime-Glo luminescence
Outline: as §1

[21] = qHTS assay to identify small molecule antagonists of the androgen receptor (AR) signaling pathway using the MDA cell line in the presence of 0.5 nM R1881 - cell viability counter screen (AID 1259242); settings: MDA-kb2 viability, CellTiter-Fluor protease fluorescence, 16 h; further: potency means the concentration at half of the fitted maximal effect; nearly all actives have a fitted effect of over 45% in size
Outline: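 Viability of MDA-kb2 cells was multiplexed with the luciferase AR readout; after 16 hr with compounds and R1881 at 0.5 nM final, CellTiter-Fluor fluorescence was recorded.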

[22] = target: Estrogen receptor beta (Homo sapiens) (UniProt Q92731); assay: qHTS assay to identify small molecule agonists of the estrogen receptor beta (ER-beta) signaling pathway (AID 1259377; active means well fitted activation curve with a large enough effect in the signal ratio in the repeat runs, not every such curve was filed as active; inconclusive means weak or mixed curves, or effect the other way; the % refers to the signal ratio; further: potency means the concentration at half of the fitted maximal effect); settings: ER-beta-UAS-bla HEK293T, beta-lactamase FRET ratio, 16 h
[23] = target: Estrogen receptor beta (Homo sapiens) (UniProt Q92731); assay: qHTS assay to identify small molecule antagonists of the estrogen receptor beta (ER-beta) signaling pathway (AID 1259378; active means well fitted inhibition curve with a large enough effect in the signal ratio in the repeat runs, not every such curve was filed as active; inconclusive means weak or mixed curves, or effect the other way; inactive means no such curve, though single readings can be large or run the other way; the % refers to the signal ratio; further: on the % scale 0 is the no-effect control and ±100 the full control effect); settings: ER-beta-UAS-bla HEK293T, beta-lactamase FRET ratio, 16 h; at 92.4 µM (top of the series)
Outline: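 ER-beta-UAS-bla HEK293T (GripTite) cells in 2% charcoal-stripped FBS medium were preincubated 6 hr at 37C, dosed with compound, then stimulated with 1 nM E2 (final) for 16 hr; beta-lactamase reporter read by B/G FRET fluorescence after 2 hr substrate loading.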

[24] = qHTS assay to identify small molecule agonists of the androgen receptor (AR) signaling pathway in the presence of an antagonist - cell viability counter screen (AID 1259379); settings: MDA-kb2 viability, CellTiter-Fluor, 16 h; further: potency means the concentration at half of the fitted maximal effect; nearly all actives have a fitted effect of over 25% in size
Outline: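 Seed MDA-kb2 at 3,000 cells/well; incubate 5 hr, 37C, 0% CO2. Add nilutamide to 3.0uM final, then pin compounds at 15 concentrations. Incubate 16 hr. Add CellTiter-Fluor at 15 hr, read fluorescence after 1 hr.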

[25] = qHTS assay to identify small molecule agonists of the estrogen receptor beta (ER-beta) signaling pathway - cell viability counter screen (AID 1259380); settings: ER-beta-bla HEK293T viability, CellTiter-Glo luminescence, 16 h; further: potency means the concentration at half of the fitted maximal effect; nearly all actives have a fitted effect of over 30% in size
Outline: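 CellTiter-Glo read, 30 min RT, same wells as bla assay; cells ER-beta-UAS-bla HEK293T; 16 hr compound, 37C; medium 2% charcoal-stripped FBS.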

[26] = qHTS assay to identify small molecule antagonists of the estrogen receptor beta (ER-beta) signaling pathway - cell viability counter screen (AID 1259382); settings: ER-beta-UAS-bla HEK293T viability, CellTiter-Glo luminescence, 16 h; further: potency means the concentration at half of the fitted maximal effect; nearly all actives have a fitted effect of over 55% in size
Outline: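 In this multiplexed counter screen, cells were seeded at 2,000 per well in medium with 2% charcoal-stripped FBS and incubated 6 hr before compound and 1nM final E2 were added. Sixteen hours later, ATP-based luminescence reported viability.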

[27] = qHTS assay to identify small molecule agonists of the estrogen receptor alpha (ER-alpha) signaling pathway in the presence of an antagonist - cell viability counter screen (AID 1259386); settings: VM7Luc4E2 viability, CellTiter-Fluor fluorescence, 22 h;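 further: potency means the concentration at half of the fitted maximal effect; cells exposed to compounds for 22 h at 37 °C before the viability read; nearly all actives have a fitted effect of over 30% in size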
Outline: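 Viability counter screen using VM7Luc4E2 (full-length ER-alpha, four ERE-luciferase). The cells were treated with compounds alongside ICI-182,780 10.0nM for 22hr, and live-cell protease fluorescence was quantified with CellTiter-Fluor.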

[28] = qHTS assay to identify small molecule agonists of the progesterone receptor (PR) signaling pathway - cell viability counter screen (AID 1346799; calls by dose curve; further: potency means the concentration at half of the fitted maximal effect; nearly all actives have a fitted effect of over 45% in size); settings: PR-UAS-bla HEK293T viability, CellTiter-Glo luminescence, 16 h
Outline: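 Cytotoxicity measured by CellTiter-Glo luminescence (30 min, RT) in the same wells as the PR beta-lactamase agonist read. Those HEK293T cells had 16 h compound treatment at 37 C in 2% charcoal-stripped FBS medium.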

[29] = Human pregnane X receptor (PXR) small molecule agonists, qHTS cell viability counter screen (AID 1346977); settings: PXR-Luc HepG2 viability, CellTiter-Fluor, 24 h
Outline: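 Same-well viability read: CellTiter-Fluor added after 23 hr compound exposure, fluorescence measured 1 hr later. Cells were PXR-Luc HepG2 seeded at 2,000/well in 5% charcoal-stripped FBS medium, rested 5 hr before dosing at 37 C.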

O=[N+]([O-])c1ccccc1[N+](=O)[O-]
inconclusive: Potency [1] 62.7 µM and 77 µM | Potency [2] 70.3 µM | Potency [3] 21.7 µM | Potency [4] 62.7 µM | Potency [5] 70.3 µM | activity change, negative = cytotoxic [5] -38.4% | Potency [6] 70.3 µM | Potency [7] 39.6 µM and 61.1 µM | Potency [8] 56.4 µM | Potency [9] 1.26 µM and 1.7 nM | Potency [10] 35.6 µM | Potency [11] 38.6 µM | Potency [12] 17.8 µM and 27.5 µM | Potency [13] 43.3 µM | Potency [14] 15.7 µM and 19.3 µM | activation [15] 23.3% | Potency [16] 20 µM and 61.6 µM | Potency [17] 51.8 µM | Potency [18] 3.89 µM | Potency [19] 3.89 µM | Potency [20] 3.09 µM | Potency [21] 61.1 µM | Potency [22] 70.3 µM | activity, negative = inhibition [23] -33.5% | Potency [24] 48.6 µM | Potency [25] 70.3 µM and 486 nM | Potency [26] 70.3 µM | Potency [27] 70.3 µM | Potency [28] 2.5 µM | Potency [29] 70.8 µM and 77 µM
